Measured values published in article PMC7819943, “Rice protein-binding microarrays: a tool to detect cis-acting elements near promoter regions in rice”.
The other results are listed elsewhere or left out.

Sequences of proteins named here, by UniProt entry; tags and fusion partners are left off.
UniProt Q0JBA9, entry or part of it: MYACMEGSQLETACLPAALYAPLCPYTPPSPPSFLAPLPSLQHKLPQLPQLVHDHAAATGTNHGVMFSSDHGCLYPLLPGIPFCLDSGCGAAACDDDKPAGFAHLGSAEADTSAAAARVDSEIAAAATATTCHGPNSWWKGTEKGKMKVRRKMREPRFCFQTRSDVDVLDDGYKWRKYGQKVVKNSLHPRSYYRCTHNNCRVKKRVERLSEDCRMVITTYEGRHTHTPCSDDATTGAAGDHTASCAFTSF

What follows are sequences tested against OsWRKY34 (Oryza sativa, UniProt Q0JBA9 1-250) (assay: protein-binding microarray (RPBM); PBS, 2% BSA, 51.3 ng/ul salmon testes DNA, 50 uM zinc acetate, 200 nM TF, 25 C, 1 h; high values mean tight binding). Details: protein: recombinant; tags: N-terminal polyhistidine and DsRed monomer fusion (pET32a); label: CyDye5-dUTP incorporated in the synthesized complementary strand; 3' TTTTT single-stranded linker to array surface; dsDNA, one strand shown.
Outline: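 Polyhistidine-tagged DsRed fusions of transcription factors, joined at the N-terminus, were expressed in E. coli BL21-CodonPlus and isolated on Ni–NTA. They were incubated at 200 nM for 1 h at 25 °C on a custom Agilent array, double-stranded and BSA-blocked, in PBS with 2% BSA, salmon testes DNA and 50 µM zinc acetate. The binding signal is per-feature fluorescence intensity (arbitrary units) read on an Axon 4000B scanner after washing.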
“TACTAATGTTATTACACGTATTGCCATTTGATTTATTGTTCGGAGTCACCTAGTGCAG” was tested, and the binding signal was 9920 fluorescence intensity (a.u.).
With “CCTTTATGATCTTGCGTTATCGAGCACCTTGTTTGGTCTTCGGAGTCACCTAGTGCAG” the binding signal was 10200 fluorescence intensity (a.u.).
In the case of “CTCCACACACCCCGCCACATCCGCCTCTGCGCGACTGCGCCGGAGTCACCTAGTGCAG”, the binding signal is reported as 8500 fluorescence intensity (a.u.).
With “TTTATGGTGATCTTCTGCAAACGACTTTTGAATATATATACGGAGTCACCTAGTGCAG” the binding signal was 9180 fluorescence intensity (a.u.).
In the case of “TAAACCATCTACATCTCCATTCCTTTTCTTTTATTGGATACGGAGTCACCTAGTGCAG”, the binding signal is reported as 8600 fluorescence intensity (a.u.).
With “TTTTTGACAGCCCTACGTGGGTGTGGGTATGGGGCAAGGGCGGAGTCACCTAGTGCAG” the binding signal was 9120 fluorescence intensity (a.u.).
In the case of “GGAGGAGGAGCACGATGGGGTCGCGTGTGGAGGGGAGGAGCGGAGTCACCTAGTGCAG”, the binding signal is reported as 9090 fluorescence intensity (a.u.).
With “CAATGCCATATGGACGTGACGTGTCCTTTTCTTTTTTTTCCGGAGTCACCTAGTGCAG” the binding signal was 9640 fluorescence intensity (a.u.).
In the case of “GATAACCGCATCTTTTGGTGAACCTTTGTAACTACTACCTCGGAGTCACCTAGTGCAG”, the binding signal is reported as 9670 fluorescence intensity (a.u.).
With “CGCTGCGCTGCCGGTCCATTTCTAGAAGCCCTCGCGCTCCCGGAGTCACCTAGTGCAG” the binding signal was 9130 fluorescence intensity (a.u.).
With “CTTGCTTCGCGAACGCCACATCCACTGCACTTCATACCTTCGGAGTCACCTAGTGCAG” the binding signal was 12700 fluorescence intensity (a.u.).
For “ACATGGTTGCTTCACTTTTTTCTTACATGGTTCATTACATCGGAGTCACCTAGTGCAG”, the binding signal was 13800 fluorescence intensity (a.u.).
In the case of “CCGCTGGTCCACGTTCTCGCTCGACTCAGTCGCCACCTCCCGGAGTCACCTAGTGCAG”, the binding signal is reported as 9140 fluorescence intensity (a.u.).
With “GACAACAATTATACCCTAATGCCCCTTGTTTTTGTGTGACCGGAGTCACCTAGTGCAG” the binding signal was 8080 fluorescence intensity (a.u.).
“CGGCACGGTGCTGCAGGGGAGGTACGAGATGGGGCGGGTGCGGAGTCACCTAGTGCAG” was tested, and the binding signal was 11200 fluorescence intensity (a.u.).
In the case of “ATGCATACCCAGAACTCACCTCTCATCTCCTCGACCCTATCGGAGTCACCTAGTGCAG”, the binding signal is reported as 8350 fluorescence intensity (a.u.).
“TCGCCCCTTCTTCTCTTCTCCTCCCCTTTCTTCTTTTTTTCGGAGTCACCTAGTGCAG” was tested, and the binding signal was 8120 fluorescence intensity (a.u.).
For “TCACCGCGCGCTCCAGCTCCGCCGCCTCCACGAAGTTGTCCGGAGTCACCTAGTGCAG”, the binding signal was 8470 fluorescence intensity (a.u.).
“CCCGTCGTCCCTACCAGCTGCCACCGCCGCCCTGTCCTCCCGGAGTCACCTAGTGCAG” was tested, and the binding signal was 8180 fluorescence intensity (a.u.).
For “TCCCTTAACTCGGTTCCCCTTCGCTTCGTTGACCCCTTGCCGGAGTCACCTAGTGCAG”, the binding signal was 11200 fluorescence intensity (a.u.).
With “GGTGGTGTGGTGGGGTGGGGACTACCACCATTAATGCAAACGGAGTCACCTAGTGCAG” the binding signal was 12500 fluorescence intensity (a.u.).
“CGCTTATTCTCAACTCCTCGCATCTCTCTTCCTCTACATCCGGAGTCACCTAGTGCAG” was tested, and the binding signal was 8920 fluorescence intensity (a.u.).
“TTTTGCTCTCACGATCCATATGCGTACTTATCTGCATGCCCGGAGTCACCTAGTGCAG” was tested, and the binding signal was 12000 fluorescence intensity (a.u.).
For “TTCCTCCCGCTCATCAGCCACATCGACATCATCCACTGCCCGGAGTCACCTAGTGCAG”, the binding signal was 10300 fluorescence intensity (a.u.).
For “GAGCTCTCGACACCTCGCCGGAAACCACCACCCACCAAAACGGAGTCACCTAGTGCAG”, the binding signal was 9840 fluorescence intensity (a.u.).
In the case of “GGGCCCCACTCCACTTGTCACCCCACCCACACGGCCACACCGGAGTCACCTAGTGCAG”, the binding signal is reported as 11500 fluorescence intensity (a.u.).
In the case of “AGCTTCAGCTGCCCGCTTTCTCTCCACCTAACGGCAGGCTCGGAGTCACCTAGTGCAG”, the binding signal is reported as 8240 fluorescence intensity (a.u.).
With “AGACAAGACCACGGTCAAACAATGCTTTGGACGGGGTTGACGGAGTCACCTAGTGCAG” the binding signal was 11500 fluorescence intensity (a.u.).
“ACTTTTCTGAATATTTACTCTCCATCTCTCTCTCACAAAACGGAGTCACCTAGTGCAG” was tested, and the binding signal was 8060 fluorescence intensity (a.u.).
For “TCATTGTTTCCATCTCTTTGCCTCAATCTCGCATATACCCCGGAGTCACCTAGTGCAG”, the binding signal was 8460 fluorescence intensity (a.u.).
“GTTGTTTTCGCTTCAGGTTCAGTGCAGTCACGAGCGCGGACGGAGTCACCTAGTGCAG” was tested, and the binding signal was 9250 fluorescence intensity (a.u.).
“GTCTGCGTGATCCGACAACCGCCTGTCCGCCTCGCCTCCGCGGAGTCACCTAGTGCAG” was tested, and the binding signal was 9710 fluorescence intensity (a.u.).
“TTGTTGTTCCACATGATTTTGGGGCATGCTTTCACTATCACGGAGTCACCTAGTGCAG” was tested, and the binding signal was 12300 fluorescence intensity (a.u.).
For “GGCTGGCTGGGCTGGTGGGTACTGGGTTTCACTGATGAAACGGAGTCACCTAGTGCAG”, the binding signal was 12300 fluorescence intensity (a.u.).
“CCCTTGTTGTGTCTGTCCCTTCCTTACATCACATCCATCCCGGAGTCACCTAGTGCAG” was tested, and the binding signal was 8200 fluorescence intensity (a.u.).
For “CTTCCATGGTTCGTTACTGTATCGAGTTCATGTATTAGTACGGAGTCACCTAGTGCAG”, the binding signal was 8110 fluorescence intensity (a.u.).
In the case of “CTCTCTCAGATCCTACGTCCCAAATCGCTCCCACCTCACCCGGAGTCACCTAGTGCAG”, the binding signal is reported as 8080 fluorescence intensity (a.u.).
In the case of “GCTCCCCACCGCCACCTCGCCCGCTCGCTGTCCCCAGATGCGGAGTCACCTAGTGCAG”, the binding signal is reported as 9560 fluorescence intensity (a.u.).
“GGTTTGGAGGCGGAGGTGGCGCTGGAGGAGGCGGCGGTCTCGGAGTCACCTAGTGCAG” was tested, and the binding signal was 9970 fluorescence intensity (a.u.).
With “TCGTCCGTTGTGTTGTGTAATATATTAACATATAATTTTTCGGAGTCACCTAGTGCAG” the binding signal was 10100 fluorescence intensity (a.u.).
For “AGGGAGGGAGGGAGGAGGAAGGAGGACTGACATGTGGGCCCGGAGTCACCTAGTGCAG”, the binding signal was 9250 fluorescence intensity (a.u.).
With “TTCCAACGAACCTCACGCGACCCTTCGTCCAGCCCAATACCGGAGTCACCTAGTGCAG” the binding signal was 8240 fluorescence intensity (a.u.).
For “TCCGCCGCCGCCACCACCACCACCCACCCGGATCCCCACCCGGAGTCACCTAGTGCAG”, the binding signal was 10200 fluorescence intensity (a.u.).
With “GTATTGTTTGTCTGTTTGTATCTTTATTTCTCACTCTTGTCGGAGTCACCTAGTGCAG” the binding signal was 10600 fluorescence intensity (a.u.).
“GCTTATTCTGTTCGCATGTGGATCGTATCCCTTTTTTAAGCGGAGTCACCTAGTGCAG” was tested, and the binding signal was 9600 fluorescence intensity (a.u.).
“CGACTGATTGGTTGGGGTCATGGTTGGAACAAAATTTCCTCGGAGTCACCTAGTGCAG” was tested, and the binding signal was 13000 fluorescence intensity (a.u.).
In the case of “ATCGACCTCCATTTTAACGTACGACTCCCTAAGAGACCCGCGGAGTCACCTAGTGCAG”, the binding signal is reported as 9660 fluorescence intensity (a.u.).
With “CACCACATCACGCCGCCGTTTCGTGCTCATCATCTCTATCCGGAGTCACCTAGTGCAG” the binding signal was 9700 fluorescence intensity (a.u.).
For “AACTCATGCAGTTTTACCGTTCATTTTCTGAATCTTAATTCGGAGTCACCTAGTGCAG”, the binding signal was 8650 fluorescence intensity (a.u.).
For “CCGCCGCCTGCTCACCGTTCCGGCTTCCCTCGCACTCTTCCGGAGTCACCTAGTGCAG”, the binding signal was 10400 fluorescence intensity (a.u.).
With “GTAGTCATTCACGTGTTCCTCTTCTCCAGTACTAGTAGCTCGGAGTCACCTAGTGCAG” the binding signal was 9710 fluorescence intensity (a.u.).
With “GTCCATGAAATTCATTCGCTTGATCAAACAGTGCTTTAATCGGAGTCACCTAGTGCAG” the binding signal was 8060 fluorescence intensity (a.u.).
With “ACCCACACCCATCAGGACTCGGCCACTCGTGTCTCTCTCTCGGAGTCACCTAGTGCAG” the binding signal was 8730 fluorescence intensity (a.u.).
“TTGCTGGTGGGAGGAGGAGGAGGAGGTTGAGAGAGGTATGCGGAGTCACCTAGTGCAG” was tested, and the binding signal was 8620 fluorescence intensity (a.u.).
